Results are given in words; binding and its absence hold for the method and conditions named. Binding seen in cells or lysates may run through a third protein.
Target: T1, SAX-3 (C. elegans) (UniProt G5EBF1)
T1 sequence: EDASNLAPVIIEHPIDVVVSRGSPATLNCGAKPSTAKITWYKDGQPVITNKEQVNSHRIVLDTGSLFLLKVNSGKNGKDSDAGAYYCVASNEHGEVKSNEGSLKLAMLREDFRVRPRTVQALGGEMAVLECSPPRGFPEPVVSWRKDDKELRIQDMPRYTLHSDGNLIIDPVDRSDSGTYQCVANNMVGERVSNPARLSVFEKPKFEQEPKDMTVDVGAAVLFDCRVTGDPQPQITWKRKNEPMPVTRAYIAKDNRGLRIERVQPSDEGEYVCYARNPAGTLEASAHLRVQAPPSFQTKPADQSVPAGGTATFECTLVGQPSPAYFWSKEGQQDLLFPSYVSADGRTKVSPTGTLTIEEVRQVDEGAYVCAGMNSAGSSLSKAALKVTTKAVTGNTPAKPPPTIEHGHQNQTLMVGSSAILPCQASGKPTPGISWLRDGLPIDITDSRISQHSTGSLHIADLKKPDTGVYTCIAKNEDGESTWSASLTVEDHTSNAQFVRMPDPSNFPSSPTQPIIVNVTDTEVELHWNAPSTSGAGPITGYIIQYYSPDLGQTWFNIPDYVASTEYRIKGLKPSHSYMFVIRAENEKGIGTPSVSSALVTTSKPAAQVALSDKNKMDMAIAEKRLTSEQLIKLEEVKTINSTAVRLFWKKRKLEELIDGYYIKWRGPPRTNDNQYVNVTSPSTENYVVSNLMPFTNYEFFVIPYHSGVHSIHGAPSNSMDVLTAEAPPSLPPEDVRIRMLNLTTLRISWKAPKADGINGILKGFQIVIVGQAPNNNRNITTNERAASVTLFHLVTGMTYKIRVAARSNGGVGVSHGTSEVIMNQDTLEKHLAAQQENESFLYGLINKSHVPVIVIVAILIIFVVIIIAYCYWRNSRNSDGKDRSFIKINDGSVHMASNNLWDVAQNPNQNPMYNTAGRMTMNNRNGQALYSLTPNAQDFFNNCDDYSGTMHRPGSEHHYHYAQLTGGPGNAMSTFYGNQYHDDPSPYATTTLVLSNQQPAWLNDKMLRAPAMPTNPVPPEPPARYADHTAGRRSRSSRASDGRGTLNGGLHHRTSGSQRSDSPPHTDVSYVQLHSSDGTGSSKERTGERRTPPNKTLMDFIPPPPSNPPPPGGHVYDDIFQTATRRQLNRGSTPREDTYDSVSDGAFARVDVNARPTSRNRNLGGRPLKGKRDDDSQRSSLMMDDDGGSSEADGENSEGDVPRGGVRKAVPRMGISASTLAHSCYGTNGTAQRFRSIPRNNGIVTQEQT
Assay: co-IP; CoIP assay; no format, conditions or source of the proteins told

B1: UNC-51 (protein, UniProt Q23023 1-856)
chain: MEQFDGFEYSKRDLLGHGAFAIVYRGRYVDRTDVPVAIKAIAKKNISKSKNLLTKEIKILKELSSLKHENLVGLLKCTETPTHVYLVMEFCNGGDLADYLQQKTTLNEDTIQHFVVQIAHALEAINKKGIVHRDLKPQNILLCNNSRTQNPHFTDIVIKLADFGFARFLNDGVMAATLCGSPMYMAPEVIMSMQYDAKADLWSIGTILFQCLTGKAPFVAQTPPQLKAYYEKTRELRPNIPEWCSPNLRDLLLRLLKRNAKDRISFEDFFNHPFLTSPLLPSPSKRILESARSPLLANRRIITPQSSLPVPKRAGSTKLDSPTPVRRIGESPRVQRRVITPGMPSPVPGAPMQESTDFTFLPPRQESSPVKQVQVHTNVSPSLTTCKPVPVPSQRLTYQKMEERLAAARKTAVPSSSSPTGSAVSAQHQHQHQQQQEPASSPVVQRIERPDQLPRRTTLQDPNAHDIERMTMPNPTFVVCGSSTKPSPNNANRVRRSTITSPADTQDMVAADQMLSNLDPTTTTTTIPKSATTANIQGIPRGARDRSVTSPPQPTIHENEPLDNAKYQQTDVNNSPTAPTEPFIIKNQTTCSTSSTSSSVVEEEEAMSLPFASGSHLAAGFKKTPAEVPMDHGALPPALDQEIVLGEEHKQILAKLRFVAELVDTLIHVAEQKDNPLASAMASRRQLLTTGTSTTNTSSPYRRAEQLVVYVRALHMLSSALLLAQTNVANRVLHPSVAVQQVLNQLNDKYHQCLVRSQELASLGLPGQDPAMAVISAERIMYRHAIELCQAAALDELFGNPQLCSQRYQTAYMMLHTLAEQVNCDQDKTVLTRYKVAVEKRLRILERQGFVAAVNT
For B1, the binding was “no binding”.

From paper PMC3680500
